Test results reported in article PMC13426208.
Results are given in words; binding and its absence hold for the method and conditions named. In cells and extracts the contact can be indirect. A yes stands for co-enrichment or nearness to the bait. Other partners may have been found. Blank lines part the entries; values can stand above or below the molecule they belong to.

Chains of the proteins cited; added tags and fusions are not shown.
UniProt O00139: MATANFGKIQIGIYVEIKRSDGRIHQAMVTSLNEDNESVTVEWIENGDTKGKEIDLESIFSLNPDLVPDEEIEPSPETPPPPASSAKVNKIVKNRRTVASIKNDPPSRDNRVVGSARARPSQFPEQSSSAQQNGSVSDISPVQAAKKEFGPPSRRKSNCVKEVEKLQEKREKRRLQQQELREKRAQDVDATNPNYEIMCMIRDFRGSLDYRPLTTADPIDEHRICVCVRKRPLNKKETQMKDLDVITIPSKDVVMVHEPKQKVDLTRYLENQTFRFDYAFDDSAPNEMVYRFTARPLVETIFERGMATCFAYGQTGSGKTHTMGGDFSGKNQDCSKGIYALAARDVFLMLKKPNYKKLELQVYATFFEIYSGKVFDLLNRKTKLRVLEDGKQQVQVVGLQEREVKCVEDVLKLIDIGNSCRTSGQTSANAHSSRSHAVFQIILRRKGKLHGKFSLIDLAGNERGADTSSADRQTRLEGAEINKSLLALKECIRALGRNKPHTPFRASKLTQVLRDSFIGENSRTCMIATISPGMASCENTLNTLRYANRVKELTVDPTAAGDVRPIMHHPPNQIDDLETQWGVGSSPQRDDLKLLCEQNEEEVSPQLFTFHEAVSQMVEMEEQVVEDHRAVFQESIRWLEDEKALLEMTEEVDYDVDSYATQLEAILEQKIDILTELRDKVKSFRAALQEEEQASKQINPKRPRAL
UniProt Q9UPQ3: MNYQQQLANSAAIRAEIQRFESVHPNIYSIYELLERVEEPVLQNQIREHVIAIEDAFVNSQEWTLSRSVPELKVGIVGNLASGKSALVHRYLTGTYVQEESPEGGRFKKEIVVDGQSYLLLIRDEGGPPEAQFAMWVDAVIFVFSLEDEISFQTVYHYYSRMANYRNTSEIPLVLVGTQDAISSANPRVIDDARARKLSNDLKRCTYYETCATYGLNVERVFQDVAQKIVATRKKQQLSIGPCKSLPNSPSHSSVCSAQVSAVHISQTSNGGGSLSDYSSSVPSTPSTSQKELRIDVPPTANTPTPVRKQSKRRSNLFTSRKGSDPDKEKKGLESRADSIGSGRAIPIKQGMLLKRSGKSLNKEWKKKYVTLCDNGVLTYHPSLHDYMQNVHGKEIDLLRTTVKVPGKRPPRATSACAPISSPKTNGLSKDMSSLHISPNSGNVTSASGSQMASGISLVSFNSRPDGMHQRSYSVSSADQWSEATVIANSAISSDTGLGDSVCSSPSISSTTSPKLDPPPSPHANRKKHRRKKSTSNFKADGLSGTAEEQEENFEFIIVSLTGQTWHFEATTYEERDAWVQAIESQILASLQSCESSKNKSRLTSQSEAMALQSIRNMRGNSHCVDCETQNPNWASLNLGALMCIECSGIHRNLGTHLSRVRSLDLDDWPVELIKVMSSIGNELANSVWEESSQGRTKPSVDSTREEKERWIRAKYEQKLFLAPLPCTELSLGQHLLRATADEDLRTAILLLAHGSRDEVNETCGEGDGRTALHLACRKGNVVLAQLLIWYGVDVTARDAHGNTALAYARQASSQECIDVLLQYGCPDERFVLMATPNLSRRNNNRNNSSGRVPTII
UniProt Q96P47: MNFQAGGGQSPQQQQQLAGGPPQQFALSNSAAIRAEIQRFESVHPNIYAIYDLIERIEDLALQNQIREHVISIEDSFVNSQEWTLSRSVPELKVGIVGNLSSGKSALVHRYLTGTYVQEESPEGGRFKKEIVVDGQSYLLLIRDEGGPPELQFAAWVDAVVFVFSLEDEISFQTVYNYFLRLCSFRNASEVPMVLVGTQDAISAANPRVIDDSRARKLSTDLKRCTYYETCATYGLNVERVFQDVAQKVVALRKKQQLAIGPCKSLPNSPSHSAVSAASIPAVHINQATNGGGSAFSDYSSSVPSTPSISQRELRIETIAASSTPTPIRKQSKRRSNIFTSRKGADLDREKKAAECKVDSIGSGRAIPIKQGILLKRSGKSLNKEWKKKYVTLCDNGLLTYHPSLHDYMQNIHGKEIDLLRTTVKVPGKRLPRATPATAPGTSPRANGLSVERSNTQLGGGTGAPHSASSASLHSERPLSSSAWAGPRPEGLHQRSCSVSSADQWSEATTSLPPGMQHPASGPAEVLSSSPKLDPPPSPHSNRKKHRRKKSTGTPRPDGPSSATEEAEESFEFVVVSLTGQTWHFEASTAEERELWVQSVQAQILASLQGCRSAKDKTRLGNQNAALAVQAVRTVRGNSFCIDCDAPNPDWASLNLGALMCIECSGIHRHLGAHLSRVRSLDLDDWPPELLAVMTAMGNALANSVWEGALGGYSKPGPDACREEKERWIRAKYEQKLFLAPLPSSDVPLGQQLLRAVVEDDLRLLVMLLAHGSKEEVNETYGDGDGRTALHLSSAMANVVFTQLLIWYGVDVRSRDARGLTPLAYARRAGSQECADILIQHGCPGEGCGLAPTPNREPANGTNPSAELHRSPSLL

Target: T1, NAT10 acetyltransferase (human (endogenous in iPSC-derived neurons)) (UniProt Q9H0A0)
T1 sequence: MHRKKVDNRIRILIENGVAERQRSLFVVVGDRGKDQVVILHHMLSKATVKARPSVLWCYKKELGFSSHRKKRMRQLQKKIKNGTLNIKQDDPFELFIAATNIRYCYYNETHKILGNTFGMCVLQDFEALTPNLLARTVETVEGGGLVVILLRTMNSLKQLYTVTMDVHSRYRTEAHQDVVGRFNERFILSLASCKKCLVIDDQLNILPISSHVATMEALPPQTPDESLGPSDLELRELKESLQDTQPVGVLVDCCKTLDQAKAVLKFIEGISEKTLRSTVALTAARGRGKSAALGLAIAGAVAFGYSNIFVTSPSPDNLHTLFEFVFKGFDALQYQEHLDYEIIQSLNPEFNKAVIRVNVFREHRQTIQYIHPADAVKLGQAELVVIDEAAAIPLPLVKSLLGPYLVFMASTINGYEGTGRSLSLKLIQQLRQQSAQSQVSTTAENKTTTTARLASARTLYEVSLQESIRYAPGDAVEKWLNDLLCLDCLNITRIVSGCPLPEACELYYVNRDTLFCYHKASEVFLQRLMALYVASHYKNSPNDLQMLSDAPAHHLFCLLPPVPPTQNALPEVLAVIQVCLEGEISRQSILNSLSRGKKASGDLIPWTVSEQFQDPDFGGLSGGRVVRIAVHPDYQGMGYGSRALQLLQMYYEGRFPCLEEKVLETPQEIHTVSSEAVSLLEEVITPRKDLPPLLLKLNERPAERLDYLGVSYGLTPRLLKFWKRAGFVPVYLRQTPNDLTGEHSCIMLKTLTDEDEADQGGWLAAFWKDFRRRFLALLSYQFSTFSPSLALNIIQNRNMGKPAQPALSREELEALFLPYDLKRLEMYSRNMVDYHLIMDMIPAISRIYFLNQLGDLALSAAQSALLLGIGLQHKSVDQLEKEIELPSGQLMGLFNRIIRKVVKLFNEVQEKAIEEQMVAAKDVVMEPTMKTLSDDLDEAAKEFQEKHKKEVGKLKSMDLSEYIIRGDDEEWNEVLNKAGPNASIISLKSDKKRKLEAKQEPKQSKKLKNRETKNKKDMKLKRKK
Experiment: affinity purification with mass spectrometry; NAT10 immunoprecipitated with a polyclonal anti-NAT10 antibody (Proteintech) from 1.4 mg of total protein extracted from iPSC-derived neurons (120 DIV; control and FTD-MAPT genotypes); Bruker ultrafleXtreme MALDI MS, Mascot search

binding: binds
Molecule: MAP1

binding: binds
Molecule: kinesin KIF2A (from UniProt O00139 1-706)

binding: binds
Molecule: AGAP1 (from UniProt Q9UPQ3 1-857)

binding: binds
Molecule: AGAP3 (from UniProt Q96P47 1-875)

binding: binds
B1: THUMPD1 (protein, UniProt Q9NXG2 1-353)
chain: MAAPAQQTTQPGGGKRKGKAQYVLAKRARRCDAGGPRQLEPGLQGILITCNMNERKCVEEAYSLLNEYGDDMYGPEKFTDKDQQPSGSEGEDDDAEAALKKEVGDIKASTEMRLRRFQSVESGANNVVFIRTLGIEPEKLVHHILQDMYKTKKKKTRVILRMLPISGTCKAFLEDMKKYAETFLEPWFKAPNKGTFQIVYKSRNNSHVNREEVIRELAGIVCTLNSENKVDLTNPQYTVVVEIIKAVCCLSVVKDYMLFRKYNLQEVVKSPKDPSQLNSKQGNGKEAKLESADKSDQNNTAEGKNNQQVPENTEELGQTKPTSNPQVVNEGGAKPELASQATEGSKSNENDFS

binding: binds
B2: SPECC1 (protein, UniProt Q5M775 1-1068)
chain: MRSAAKPWNPAIRAGGHGPDRVRPLPAASSGMKSSKSSTSLAFESRLSRLKRASSEDTLNKPGSTAASGVVRLKKTATAGAISELTESRLRSGTGAFTTTKRTGIPAPREFSVTVSRERSVPRGPSNPRKSVSSPTSSNTPTPTKHLRTPSTKPKQENEGGEKAALESQVRELLAEAKAKDSEINRLRSELKKYKEKRTLNAEGTDALGPNVDGTSVSPGDTEPMIRALEEKNKNFQKELSDLEEENRVLKEKLIYLEHSPNSEGAASHTGDSSCPTSITQESSFGSPTGNQMSSDIDEYKKNIHGNALRTSGSSSSDVTKASLSPDASDFEHITAETPSRPLSSTSNPFKSSKCSTAGSSPNSVSELSLASLTEKIQKMEENHHSTAEELQATLQELSDQQQMVQELTAENEKLVDEKTILETSFHQHRERAEQLSQENEKLMNLLQERVKNEEPTTQEGKIIELEQKCTGILEQGRFEREKLLNIQQQLTCSLRKVEEENQGALEMIKRLKEENEKLNEFLELERHNNNMMAKTLEECRVTLEGLKMENGSLKSHLQGEKQKATEASAVEQTAESCEVQEMLKVARAEKDLLELSCNELRQELLKANGEIKHVSSLLAKVEKDYSYLKEICDHQAEQLSRTSLKLQEKASESDAEIKDMKETIFELEDQVEQHRAVKLHNNQLISELESSVIKLEEQKSDLERQLKTLTKQMKEETEEWRRFQADLQTAVVVANDIKCEAQQELRTVKRKLLEEEEKNARLQKELGDVQGHGRVVTSRAAPPPVDEEPESSEVDAAGRWPGVCVSRTSPTPPESATTVKSLIKSFDLGRPGGAGQNISVHKTPRSPLSGIPVRTAPAAAVSPMQRHSTYSSVRPASRGVTQRLDLPDLPLSDILKGRTETLKPDPHLRKSPSLESLSRPPSLGFGDTRLLSASTRAWKPQSKLSVERKDPLAALAREYGGSKRNALLKWCQKKTQGYANIDITNFSSSWSDGLAFCALLHTYLPAHIPYQELNSQEKKRNLLLAFEAAESVGIKPSLELSEMLYTDRPDWQSVMQYVAQIYKYFET
